Experimental data taken from publication doi:10.1101/2022.11.22.517594.
No constants are given. Whether binding was seen depends on the method and setting. In cells and extracts the contact can be indirect. Some results given as binding are weak or reduced against the parent protein; the word gives no strength.

Sequences of proteins named here, by UniProt entry; tags and fusion partners are left off. A change or cut given only in a name is not applied to a line headed by its entry. A line that says so, or that is headed by a name, gives the form on record, which may keep a tag or linker.
UniProt Q14145: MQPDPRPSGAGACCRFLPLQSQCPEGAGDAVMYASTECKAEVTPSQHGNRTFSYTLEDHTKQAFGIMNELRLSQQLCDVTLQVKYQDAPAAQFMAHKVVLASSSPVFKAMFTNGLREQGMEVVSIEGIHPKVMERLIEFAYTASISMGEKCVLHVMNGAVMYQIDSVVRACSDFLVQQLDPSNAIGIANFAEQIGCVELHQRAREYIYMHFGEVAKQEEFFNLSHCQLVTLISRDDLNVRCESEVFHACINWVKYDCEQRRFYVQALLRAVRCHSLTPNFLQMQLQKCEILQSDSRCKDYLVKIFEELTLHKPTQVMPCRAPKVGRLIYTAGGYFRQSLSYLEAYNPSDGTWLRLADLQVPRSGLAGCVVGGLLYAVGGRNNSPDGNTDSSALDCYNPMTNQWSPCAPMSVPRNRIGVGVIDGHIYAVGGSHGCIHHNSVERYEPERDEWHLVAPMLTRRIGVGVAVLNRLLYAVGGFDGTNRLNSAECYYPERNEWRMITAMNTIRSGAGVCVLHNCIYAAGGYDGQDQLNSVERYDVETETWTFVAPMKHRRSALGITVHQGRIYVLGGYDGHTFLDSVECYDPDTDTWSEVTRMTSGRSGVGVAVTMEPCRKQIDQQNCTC
UniProt Q15796: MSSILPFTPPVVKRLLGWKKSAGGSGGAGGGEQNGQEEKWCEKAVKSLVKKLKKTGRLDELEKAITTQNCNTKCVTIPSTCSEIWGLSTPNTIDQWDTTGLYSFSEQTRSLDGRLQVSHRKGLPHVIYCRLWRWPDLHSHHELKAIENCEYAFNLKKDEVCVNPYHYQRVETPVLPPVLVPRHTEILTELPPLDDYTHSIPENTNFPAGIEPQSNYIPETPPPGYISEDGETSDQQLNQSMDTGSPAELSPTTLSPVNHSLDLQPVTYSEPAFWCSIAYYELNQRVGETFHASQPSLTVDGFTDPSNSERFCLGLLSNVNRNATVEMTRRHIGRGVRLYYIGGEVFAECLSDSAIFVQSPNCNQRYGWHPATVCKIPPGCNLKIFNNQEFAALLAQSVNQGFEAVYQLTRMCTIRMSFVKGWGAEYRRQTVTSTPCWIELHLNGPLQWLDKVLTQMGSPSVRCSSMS
Smad2^△228-264-Flag (Q15796-1, form named): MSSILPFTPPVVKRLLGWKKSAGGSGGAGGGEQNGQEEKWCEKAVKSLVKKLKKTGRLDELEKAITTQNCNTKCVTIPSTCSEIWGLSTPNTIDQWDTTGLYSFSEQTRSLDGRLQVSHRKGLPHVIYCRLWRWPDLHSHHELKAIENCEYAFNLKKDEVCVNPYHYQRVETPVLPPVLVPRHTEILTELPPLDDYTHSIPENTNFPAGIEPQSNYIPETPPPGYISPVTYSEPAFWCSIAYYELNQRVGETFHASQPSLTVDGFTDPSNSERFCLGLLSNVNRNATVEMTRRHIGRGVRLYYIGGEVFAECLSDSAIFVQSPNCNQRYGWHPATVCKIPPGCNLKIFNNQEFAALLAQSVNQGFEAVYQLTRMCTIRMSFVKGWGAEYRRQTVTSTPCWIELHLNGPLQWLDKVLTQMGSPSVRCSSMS
UniProt P84022: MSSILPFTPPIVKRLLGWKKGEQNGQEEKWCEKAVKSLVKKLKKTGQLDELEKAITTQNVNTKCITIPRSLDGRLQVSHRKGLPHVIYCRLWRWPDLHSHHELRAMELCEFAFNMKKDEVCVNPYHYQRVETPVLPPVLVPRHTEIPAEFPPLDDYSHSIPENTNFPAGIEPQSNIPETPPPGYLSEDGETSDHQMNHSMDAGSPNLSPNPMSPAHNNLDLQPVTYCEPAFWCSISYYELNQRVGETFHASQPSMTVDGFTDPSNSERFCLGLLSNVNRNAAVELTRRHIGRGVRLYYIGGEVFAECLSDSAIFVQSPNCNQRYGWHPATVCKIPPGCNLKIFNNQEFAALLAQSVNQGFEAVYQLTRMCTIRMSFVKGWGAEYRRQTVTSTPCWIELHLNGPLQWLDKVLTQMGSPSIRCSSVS

Key:
Experiment in all cases: co-IP
V5-tagged Keap1β (human) = V5-tagged Keap1β (human) (UniProt Q14145)
[1] = molecular target: V5-tagged Keap1 (Kelch-like ECH-associated protein 1) (human) (UniProt Q14145)
Smad2-Flag (human) = Smad2-Flag (human) (UniProt Q15796)
Smad3-Flag (human) = Smad3-Flag (human) (UniProt P84022)

Substance | binding (V5-tagged Keap1β (human)) | binding [1] | binding (Smad2-Flag (human)) | binding (Smad3-Flag (human))
V5-tagged Keap1 (Kelch-like ECH-associated protein 1) (from UniProt Q14145 1-624) |  |  | binds | binds
V5-tagged Keap1β (from UniProt Q14145 32-624) |  |  | binds | binds

Second part, the substance after the results:

binding (V5-tagged Keap1β (human)) | binding [1] | binding (Smad2-Flag (human)) | binding (Smad3-Flag (human)) | Substance
binds | binds |  |  | Smad2-Flag (from UniProt Q15796-1 1-467)
 | no binding |  |  | Smad2^△228-264-Flag (from UniProt Q15796-1 1-467)
binds | binds |  |  | Smad3-Flag (from UniProt P84022-1 1-425)
